The target of this experiment is HSP60 (human (endogenous in A375)) (UniProt P10809). The experiment can be described thus: co-IP.

Chains of the proteins cited; added tags and fusions are not shown. Residues count along the entry.
UniProt P10809, residues 27-573: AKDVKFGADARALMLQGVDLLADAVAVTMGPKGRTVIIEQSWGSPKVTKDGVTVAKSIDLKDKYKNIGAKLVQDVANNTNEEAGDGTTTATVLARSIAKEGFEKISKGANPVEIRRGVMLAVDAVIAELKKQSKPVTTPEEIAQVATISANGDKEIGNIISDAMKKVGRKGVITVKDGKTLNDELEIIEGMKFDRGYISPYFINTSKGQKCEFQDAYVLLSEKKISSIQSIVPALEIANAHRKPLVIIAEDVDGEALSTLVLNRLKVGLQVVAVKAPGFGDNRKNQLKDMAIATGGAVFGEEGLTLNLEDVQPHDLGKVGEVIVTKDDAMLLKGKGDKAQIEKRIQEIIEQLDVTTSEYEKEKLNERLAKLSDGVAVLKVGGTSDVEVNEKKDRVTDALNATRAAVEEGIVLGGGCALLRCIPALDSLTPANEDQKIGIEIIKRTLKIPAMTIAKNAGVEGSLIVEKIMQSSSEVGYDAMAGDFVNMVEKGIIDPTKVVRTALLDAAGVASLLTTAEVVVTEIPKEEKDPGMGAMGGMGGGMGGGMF

No constants are given. Whether binding was seen depends on the method and setting. In cells and extracts the contact can be indirect. Some results given as binding are weak or reduced against the parent protein; the word gives no strength.

B1: IKKβ (protein, UniProt O14920 1-756)
chain: MSWSPSLTTQTCGAWEMKERLGTGGFGNVIRWHNQETGEQIAIKQCRQELSPRNRERWCLEIQIMRRLTHPNVVAARDVPEGMQNLAPNDLPLLAMEYCQGGDLRKYLNQFENCCGLREGAILTLLSDIASALRYLHENRIIHRDLKPENIVLQQGEQRLIHKIIDLGYAKELDQGSLCTSFVGTLQYLAPELLEQQKYTVTVDYWSFGTLAFECITGFRPFLPNWQPVQWHSKVRQKSEVDIVVSEDLNGTVKFSSSLPYPNNLNSVLAERLEKWLQLMLMWHPRQRGTDPTYGPNGCFKALDDILNLKLVHILNMVTGTIHTYPVTEDESLQSLKARIQQDTGIPEEDQELLQEAGLALIPDKPATQCISDGKLNEGHTLDMDLVFLFDNSKITYETQISPRPQPESVSCILQEPKRNLAFFQLRKVWGQVWHSIQTLKEDCNRLQQGQRAAMMNLLRNNSCLSKMKNSMASMSQQLKAKLDFFKTSIQIDLEKYSEQTEFGITSDKLLLAWREMEQAVELCGRENEVKLLVERMMALQTDIVDLQRSPMGRKQGGTLDDLEEQARELYRRLREKPRDQRTEGDSQEMVRLLLQAIQSFEKKVRVIYTQLSKTVVCKQKALELLPKVEEVVSLMNEDEKTVVRLQEKRQKELWNLLKIACSKVRGPVSGSPDSMNASRLSQPGQLMSQPSTASNSLPEPAKKSEELVAEAHNLCTLLENAIQDTVREQDQSFTALDWSWLQTEEEEHSCLEQAS
With B1, the binding entry was “binds”.

Values taken from doi:10.1101/2020.12.24.424330.
